According to the supplement of paper PMC3334620:
Over roughly 33,000 sequences, “E-score (-0.5 to 0.5)” has its median near -0.0059; the highest 2% begin near 0.26. The list shows a part of the results.

biological target: T1, Cin5 (UniProt P40917); experiment: PBM E-score (8-mer binding enrichment) (E-score (-0.5 to 0.5)); higher = stronger / more preferred TF binding; settings: protein concentration: 100 nM; construct: GST-full length
T1 sequence: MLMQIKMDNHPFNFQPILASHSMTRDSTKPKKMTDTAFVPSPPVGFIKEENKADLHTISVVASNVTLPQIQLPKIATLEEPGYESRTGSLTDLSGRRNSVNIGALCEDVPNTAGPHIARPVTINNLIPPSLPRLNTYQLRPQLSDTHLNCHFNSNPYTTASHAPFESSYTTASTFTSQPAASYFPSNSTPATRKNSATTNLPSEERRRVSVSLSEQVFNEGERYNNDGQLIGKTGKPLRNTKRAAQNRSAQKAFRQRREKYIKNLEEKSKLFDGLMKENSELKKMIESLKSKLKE
Method: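 Universal 'all 10-mer' protein binding microarrays (Agilent AMADID 015681) probed with GST-tagged S. cerevisiae TFs (full-length or DBD) made by in vitro transcription/translation (PURExpress), about 100-200 nM. Bound TF was detected with fluorescent anti-GST. Each ungapped 8-mer (which stands for itself and its reverse complement) is scored by the PBM enrichment score (E-score), a modified Wilcoxon-Mann-Whitney statistic from -0.5 to +0.5, computed with the Universal PBM Analysis Suite. Scale: above 0.35 generally sequence-specific binding.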

Sequence	PBM E-score
ATTTCAAC	0.119
TCATGCGA	0.0601
AAGTTGGG	-0.0183
CAGGGAGA	-0.215
ACGACGGA	0.234
TACCTCTA	-0.00428
CTCCGAGA	-0.0521
ATTTCGCG	0.208
GGAAACTA	-0.105
AACTCTGC	-0.124
ATGGCTTG	-0.145
ATTTACTG	0.219
TAACGCTA	-0.0279
AACCTGTG	-0.0885
AATTGGGA	0.184
AACAATGT	-0.0488
CGATTCGA	0.191
CCGCGCAA	0.0146
AATGCCCC	-0.151
ACACTAGT	-0.0235
AGGTTGTC	-0.236
GTTTGCAA	0.172
CGACGCTC	-0.00616
CTGCACAC	-0.0685
ACTCAAGA	0.0188

Some of the entries so far, as comma-separated lines.
Sequence,PBM E-score
ATTTACTG,0.219
TAACGCTA,-0.0279
AACCTGTG,-0.0885
AATTGGGA,0.184
AACAATGT,-0.0488
CGATTCGA,0.191

Additional results.

Sequence	PBM E-score
ATATTTTC	0.31
AAGGCCTC	-0.187
ACGCTGTC	-0.164
CTACGAGC	-0.108
CCTAGTCG	-0.14
CTGGGCCC	-0.275
AGTAAATA	0.167
AACGACCG	-0.155
AGATAGCG	0.0377
ATCTCTGC	0.0965
GAGCTGGA	-0.179
GCCAACAC	-0.0241
GTGCAGTA	-0.0375
CAATCTTC	0.131
ATTCCCCC	-0.264
ATCTCGTG	-0.0285
TGGTTTAA	0.108
CACGCCCC	-0.23
ATACGCAG	-0.119
ATCACTCC	0.00353
CGACTGAC	-0.16
GATAGCTA	-0.0382
GTACCAGA	-0.0805
CAAATATC	0.282
CCCGTACA	-0.181

Sequence	PBM E-score
ACGCTTCT	-0.0215
GGTGCAGA	-0.255
CGGGAGCA	-0.22
CACTTTGC	0.00772
ATGAACCC	0.0688
TATGTCCA	-0.0468
GCAGCAAC	-0.0419
ATATTGAG	0.266
AAGCTAAC	0.185
CTCCCTGA	-0.0625
CACCAAAG	0.0509
CTACCTGA	-0.0989
AGACCCAT	0.0321
ACGGAGAA	0.0322
CCGTCTTC	0.00958
AATTGCCT	0.115
ATACATCC	0.0774
CAATTTCC	0.0938
GATGCAGC	0.00311
CAACTAGG	0.00319
AGCGCTGG	-0.0736
AGGCCGAT	-0.119
AATCCATT	0.2
AACTTCCA	-0.0525
ATGATCTC	0.0738

Sequence	PBM E-score
CAACCGCA	0.0315
CACCACCC	-0.0407
CGTACTTA	0.16
AACTTGGG	0.122
GACCGCCA	-0.0859
AAGCTCGC	0.0999
CGTGAGTA	0.0731
AAATAGTC	0.00929
GAGAAGGC	-0.245
CGAGGTGA	0.0752
CACTCCCC	0.0284
CCATGGGG	-0.127
GGAATCTA	0.143
CACTCTGG	-0.127
AGCCAATA	-0.00242
CGCTGCAC	-0.0572
CTGTTAAA	-0.032
GCCGTAAC	0.00763
ACCAGGGG	-0.265
AAATCGAG	-0.031
CCATGTAC	-0.109
CGGCCTTC	-0.102
ACTAATAC	0.26
GGTTTGTA	0.0605
AAATCCGC	-0.0185

Sequence	PBM E-score
CGGCACAA	-0.0935
AGATGTTC	-0.197
ACAATTCG	0.12
GACCCACA	0.133
CCGCCCGA	0.012
ATACGAAA	0.265
AGACCCTA	-0.164
CAAGCCAC	-0.368
ATTCAGCG	0.233
AAGTCTTC	-0.257
AAATACGC	0.144
CATTTTTC	0.0702
CAGGTATC	-0.0616
TCACCACA	0.186
ATTACAAA	0.306
AACAATAC	0.187
ACAAGAGC	-0.0238
GTGCGTAA	-0.0141
CAGACAGC	-0.0968
AATTCCTG	-0.0499
ATGTATTG	0.304
AATGCGCA	0.249
AGTTACGG	-0.112
CTTCGCAC	-0.0139
TGGAACAA	0.0669

Sequence	PBM E-score
GTCTCATA	0.00039
CGTAGGGC	-0.255
AATTGACA	0.0691
CATAGAAG	0.0379
CAGCGGTA	0.126
ACGCCGCA	0.0104
TCCCTCCA	-0.323
AGCCTAGA	-0.255
GATAAATC	0.0808
ACGGGACT	-0.242
CAGTTACC	-0.0935
CGAGAGCC	-0.163
ACCTAAGT	0.135
ATTGTCAA	0.151
AACTAACC	0.201
GAAATGGC	-0.0366
AAAAGCGC	-0.0741
AGCTCGAA	0.00437
CAATGGCG	0.0527
TCGAGGCA	-0.0419
GTGCCGCA	-0.0966
TCATTCCA	-0.00828
TCGAATCA	0.0732
ACTCCTTA	-0.055
CATTCCTA	-0.0155

Sequence	PBM E-score
GCCCACAA	-0.17
ACGGCACC	-0.272
AAGTATAA	0.216
CAGCCGGA	0.188
AATACTGC	0.1
CAACCCGA	0.143
AAACTACC	0.0362
AGGAGTGA	-0.0352
ATTAATTA	0.259
ACGTGGCC	-0.243
CGTTTCGA	-0.148
ACGCGAAG	-0.0168
AAACACGG	-0.0665
AGAGGGGG	-0.456
ACATGGCA	-0.0603
ACATTGTG	0.0287
CAAGCACG	-0.0414
AACCCCAT	0.0967
GACTCCCC	-0.313
AACCCCAC	0.0386
GCGGCGTA	0.138
AAGAATGA	0.0772

Some of the entries above in a different format:

| Sequence | PBM E-score |
| --- | --- |
| AAACTACC | 0.0362 |
| ACGTGGCC | -0.243 |
| CAAGCACG | -0.0414 |
| GACTCCCC | -0.313 |
